The target in the assay is VE-PTP (human (endogenous in HUVECs)) (UniProt P23467). Description: co-IP; HUVECs pretreated with 30 ug/ml 4E2 for 20 min, then VEGF for 10 min; 1% NP-40 lysis buffer (20 mM HEPES pH 7.4, 150 mM NaCl, 1 mM EDTA); lysate incubated overnight with anti-human VE-PTP antibody, Protein-A/G agarose beads; immunoblot.

The chains behind the UniProt entries cited, without tags or fusion partners. Residues count along the entry.
UniProt P23467, residues 23-1997: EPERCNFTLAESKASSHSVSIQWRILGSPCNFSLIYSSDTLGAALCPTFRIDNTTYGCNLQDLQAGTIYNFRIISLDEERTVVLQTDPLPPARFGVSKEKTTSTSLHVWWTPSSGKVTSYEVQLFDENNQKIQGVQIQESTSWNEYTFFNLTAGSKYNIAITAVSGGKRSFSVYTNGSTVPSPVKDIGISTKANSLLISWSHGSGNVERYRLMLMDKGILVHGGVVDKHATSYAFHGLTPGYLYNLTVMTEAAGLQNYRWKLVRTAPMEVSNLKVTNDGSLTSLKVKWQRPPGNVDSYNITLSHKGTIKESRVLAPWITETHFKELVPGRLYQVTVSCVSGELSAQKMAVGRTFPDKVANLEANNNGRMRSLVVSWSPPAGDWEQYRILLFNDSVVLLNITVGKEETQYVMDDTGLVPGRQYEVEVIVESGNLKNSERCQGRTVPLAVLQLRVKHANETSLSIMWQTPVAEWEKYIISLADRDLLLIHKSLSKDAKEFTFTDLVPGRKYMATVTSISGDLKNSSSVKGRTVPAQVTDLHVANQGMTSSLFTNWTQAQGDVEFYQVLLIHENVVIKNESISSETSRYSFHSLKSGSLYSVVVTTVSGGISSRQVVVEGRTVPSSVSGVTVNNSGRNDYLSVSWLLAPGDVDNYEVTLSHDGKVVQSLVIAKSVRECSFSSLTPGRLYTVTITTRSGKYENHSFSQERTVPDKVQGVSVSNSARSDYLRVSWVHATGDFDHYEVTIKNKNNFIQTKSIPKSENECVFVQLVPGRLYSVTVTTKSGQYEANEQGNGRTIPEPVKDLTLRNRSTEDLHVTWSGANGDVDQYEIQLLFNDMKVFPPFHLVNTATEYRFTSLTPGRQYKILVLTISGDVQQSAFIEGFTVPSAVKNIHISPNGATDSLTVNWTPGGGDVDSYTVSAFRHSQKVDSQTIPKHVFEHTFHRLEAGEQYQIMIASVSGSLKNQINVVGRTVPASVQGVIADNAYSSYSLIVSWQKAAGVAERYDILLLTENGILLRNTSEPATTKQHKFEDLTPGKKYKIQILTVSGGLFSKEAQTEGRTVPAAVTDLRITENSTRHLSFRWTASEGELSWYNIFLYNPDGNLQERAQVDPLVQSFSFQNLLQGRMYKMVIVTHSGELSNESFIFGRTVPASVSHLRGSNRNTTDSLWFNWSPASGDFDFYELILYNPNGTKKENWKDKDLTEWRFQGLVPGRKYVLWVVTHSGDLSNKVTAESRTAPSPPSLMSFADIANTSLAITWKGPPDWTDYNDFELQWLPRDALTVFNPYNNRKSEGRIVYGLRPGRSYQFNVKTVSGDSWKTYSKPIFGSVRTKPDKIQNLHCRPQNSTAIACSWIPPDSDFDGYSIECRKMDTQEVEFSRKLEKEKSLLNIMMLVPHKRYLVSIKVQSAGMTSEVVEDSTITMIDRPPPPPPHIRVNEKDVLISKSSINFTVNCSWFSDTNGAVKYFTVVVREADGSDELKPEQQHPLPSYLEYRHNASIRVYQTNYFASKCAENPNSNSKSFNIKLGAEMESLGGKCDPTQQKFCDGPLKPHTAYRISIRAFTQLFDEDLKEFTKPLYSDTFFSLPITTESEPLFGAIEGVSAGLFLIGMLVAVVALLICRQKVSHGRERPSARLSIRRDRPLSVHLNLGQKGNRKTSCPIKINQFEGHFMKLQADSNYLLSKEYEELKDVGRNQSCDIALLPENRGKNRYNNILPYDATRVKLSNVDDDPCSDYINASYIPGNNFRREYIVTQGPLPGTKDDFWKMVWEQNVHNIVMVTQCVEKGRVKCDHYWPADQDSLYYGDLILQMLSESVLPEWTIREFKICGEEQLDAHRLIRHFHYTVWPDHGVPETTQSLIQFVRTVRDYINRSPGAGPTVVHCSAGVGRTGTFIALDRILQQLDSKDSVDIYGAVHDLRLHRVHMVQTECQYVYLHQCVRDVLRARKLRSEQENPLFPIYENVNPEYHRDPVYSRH
UniProt Q02763, residues 23-1124: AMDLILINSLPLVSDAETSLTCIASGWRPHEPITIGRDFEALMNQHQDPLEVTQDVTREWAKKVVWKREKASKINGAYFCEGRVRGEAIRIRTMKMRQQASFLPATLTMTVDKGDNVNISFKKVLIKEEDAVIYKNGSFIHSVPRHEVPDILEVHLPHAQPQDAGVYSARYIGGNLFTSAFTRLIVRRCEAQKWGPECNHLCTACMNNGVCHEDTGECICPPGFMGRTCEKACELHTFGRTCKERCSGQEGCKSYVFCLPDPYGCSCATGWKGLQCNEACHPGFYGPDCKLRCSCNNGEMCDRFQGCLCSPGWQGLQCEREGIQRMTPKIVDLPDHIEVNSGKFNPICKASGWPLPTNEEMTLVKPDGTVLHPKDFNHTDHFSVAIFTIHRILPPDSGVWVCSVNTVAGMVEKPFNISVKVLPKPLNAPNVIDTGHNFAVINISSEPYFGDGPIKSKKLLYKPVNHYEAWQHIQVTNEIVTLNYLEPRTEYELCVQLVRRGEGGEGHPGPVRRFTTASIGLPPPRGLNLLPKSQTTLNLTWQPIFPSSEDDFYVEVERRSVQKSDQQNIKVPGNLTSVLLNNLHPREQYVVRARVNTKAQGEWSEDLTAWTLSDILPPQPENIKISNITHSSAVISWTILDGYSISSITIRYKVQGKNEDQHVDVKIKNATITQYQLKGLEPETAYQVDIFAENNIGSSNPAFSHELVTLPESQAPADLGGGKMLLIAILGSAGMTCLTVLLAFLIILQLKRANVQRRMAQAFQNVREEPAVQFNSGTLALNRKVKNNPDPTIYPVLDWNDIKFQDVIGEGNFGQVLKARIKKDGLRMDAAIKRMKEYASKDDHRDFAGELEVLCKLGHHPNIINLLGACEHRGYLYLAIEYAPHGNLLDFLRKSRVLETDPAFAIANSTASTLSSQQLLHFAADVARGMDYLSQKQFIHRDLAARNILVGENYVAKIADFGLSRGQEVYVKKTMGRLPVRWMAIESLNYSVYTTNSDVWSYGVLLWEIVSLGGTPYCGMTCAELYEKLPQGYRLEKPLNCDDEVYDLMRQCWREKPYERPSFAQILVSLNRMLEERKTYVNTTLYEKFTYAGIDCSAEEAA
UniProt P35968, residues 20-1356: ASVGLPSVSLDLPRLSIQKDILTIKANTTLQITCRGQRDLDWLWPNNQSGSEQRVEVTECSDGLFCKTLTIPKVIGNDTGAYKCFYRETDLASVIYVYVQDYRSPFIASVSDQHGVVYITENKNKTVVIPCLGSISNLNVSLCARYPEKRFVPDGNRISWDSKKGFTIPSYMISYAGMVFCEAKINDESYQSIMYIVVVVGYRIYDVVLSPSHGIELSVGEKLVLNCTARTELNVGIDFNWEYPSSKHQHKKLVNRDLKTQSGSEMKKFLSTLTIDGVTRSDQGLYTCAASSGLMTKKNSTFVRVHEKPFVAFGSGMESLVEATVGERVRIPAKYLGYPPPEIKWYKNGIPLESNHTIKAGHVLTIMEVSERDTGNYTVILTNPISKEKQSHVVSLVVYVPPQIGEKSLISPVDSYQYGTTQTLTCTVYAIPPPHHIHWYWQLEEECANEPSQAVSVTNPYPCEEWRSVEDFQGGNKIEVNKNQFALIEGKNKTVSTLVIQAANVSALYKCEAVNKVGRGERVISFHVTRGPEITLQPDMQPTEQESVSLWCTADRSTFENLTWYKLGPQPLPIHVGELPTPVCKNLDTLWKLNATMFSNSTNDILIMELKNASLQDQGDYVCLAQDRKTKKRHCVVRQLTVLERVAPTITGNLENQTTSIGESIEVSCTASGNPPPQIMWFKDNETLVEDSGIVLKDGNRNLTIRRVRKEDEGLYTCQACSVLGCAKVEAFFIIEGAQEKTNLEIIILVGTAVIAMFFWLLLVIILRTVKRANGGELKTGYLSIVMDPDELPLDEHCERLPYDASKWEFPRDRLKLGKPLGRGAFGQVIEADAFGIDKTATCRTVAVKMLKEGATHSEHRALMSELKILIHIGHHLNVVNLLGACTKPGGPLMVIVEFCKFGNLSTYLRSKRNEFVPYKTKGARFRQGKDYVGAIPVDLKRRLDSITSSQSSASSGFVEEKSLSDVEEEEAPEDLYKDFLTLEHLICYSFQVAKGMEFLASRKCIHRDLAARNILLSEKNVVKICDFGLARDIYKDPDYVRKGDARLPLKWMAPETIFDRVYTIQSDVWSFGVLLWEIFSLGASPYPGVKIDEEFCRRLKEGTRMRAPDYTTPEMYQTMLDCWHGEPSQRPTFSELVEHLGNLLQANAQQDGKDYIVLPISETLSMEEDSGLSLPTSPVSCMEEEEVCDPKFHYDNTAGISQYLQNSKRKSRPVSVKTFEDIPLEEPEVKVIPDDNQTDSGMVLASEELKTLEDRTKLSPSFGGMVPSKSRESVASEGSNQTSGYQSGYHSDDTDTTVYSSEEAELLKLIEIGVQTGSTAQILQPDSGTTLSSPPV

Results are given in words; binding and its absence hold for the method and conditions named. In cells and extracts the contact can be indirect. Some binding calls cover weakened binding; strength is not graded here.

“tunica interna endothelial cell kinase 2 (Tie2), endogenous in HUVECs (from UniProt Q02763 23-1124) (receptor)”: the binding result is listed as “binds”.

For “vascular endothelial growth factor receptor 2 (from UniProt P35968 20-1356)”, the binding result is reported as “binds”.

For the origin of these results see paper PMC9981882.
